# Assay results: the supplement of paper PMC8728848
# Some of the results follow.
# What was measured:
# Assay in all cases: glycan array binding signal (z-score within array); higher = stronger binding
# Details in all cases: glycan notation: IUPAC condensed, linker removed
# [1] = target: Gal(b1-4)GlcNAc(b1-6)GalNAc
# Summary of the method: (§1)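 Negative Z-scores can be read as non-binding. The Z-score is calculated within each array and then averaged across arrays of one protein sequence at different concentrations or buffers and across linkers. Arrays, 3228 in all, were curated from the Consortium for Functional Glycomics database and kept only where the protein sequence was available.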
# [2] = target: Gal(b1-4)GlcNAc(b1-6)[Gal(b1-3)]GalNAc
# Summary of the method: as §1
# [3] = target: Gal(b1-4)GlcNAc(b1-6)[Gal(b1-4)GlcNAc(b1-3)]GalNAc
# Summary of the method: as §1
# Gal(b1-4)GlcNAc6P = target: Gal(b1-4)GlcNAc6P
# Summary of the method: as §1
# Gal(b1-6)Gal = target: Gal(b1-6)Gal
# Summary of the method: as §1
# Gal3S(b1-3)GalNAc = target: Gal3S(b1-3)GalNAc
# Summary of the method: as §1
# Gal3S(b1-3)GlcNAc = target: Gal3S(b1-3)GlcNAc
# Summary of the method: as §1
# [4] = target: Gal3S(b1-3)[Fuc(a1-4)]GlcNAc
# Summary of the method: as §1
# Gal3S(b1-4)Glc = target: Gal3S(b1-4)Glc
# Summary of the method: as §1
# Gal3S(b1-4)Glc6S = target: Gal3S(b1-4)Glc6S
# Summary of the method: as §1
# Gal3S(b1-4)GlcNAc = target: Gal3S(b1-4)GlcNAc
# Summary of the method: as §1
# [5] = target: Gal3S(b1-4)[Fuc(a1-3)]Glc6S
# Summary of the method: as §1
# [6] = target: Gal3S(b1-4)[Fuc(a1-3)]GlcNAc
# Summary of the method: as §1
# [7] = target: Gal3S(b1-4)[Fuc(a1-3)]GlcNAc6S
# Summary of the method: as §1
# Gal3S4S(b1-4)GlcNAc = target: Gal3S4S(b1-4)GlcNAc
# Summary of the method: as §1
# Gal3S6S(b1-4)GlcNAc = target: Gal3S6S(b1-4)GlcNAc
# Summary of the method: as §1
# Gal3S6S(b1-4)GlcNAc6S = target: Gal3S6S(b1-4)GlcNAc6S
# Summary of the method: as §1
# Gal4S(b1-4)GlcNAc = target: Gal4S(b1-4)GlcNAc
# Summary of the method: as §1
# Gal4S6S(b1-4)GlcNAc = target: Gal4S6S(b1-4)GlcNAc
# Summary of the method: as §1
# Gal6P(b1-4)GlcNAc = target: Gal6P(b1-4)GlcNAc
# Summary of the method: as §1
# Gal6S(b1-3)GlcNAc = target: Gal6S(b1-3)GlcNAc
# Summary of the method: as §1
# Gal6S(b1-3)GlcNAc6S = target: Gal6S(b1-3)GlcNAc6S
# Summary of the method: as §1
# Gal6S(b1-4)Glc = target: Gal6S(b1-4)Glc
# Summary of the method: as §1
# Gal6S(b1-4)Glc6S = target: Gal6S(b1-4)Glc6S
# Summary of the method: as §1
# Gal6S(b1-4)GlcNAc = target: Gal6S(b1-4)GlcNAc
# Summary of the method: as §1
# Gal6S(b1-4)GlcNAc6S = target: Gal6S(b1-4)GlcNAc6S
# Summary of the method: as §1
# GalNAc(a1-3)Gal = target: GalNAc(a1-3)Gal
# Summary of the method: as §1
# GalNAc(a1-3)GalNAc = target: GalNAc(a1-3)GalNAc
# Summary of the method: as §1
# [8] = target: GalNAc(a1-3)GalNAc(b1-3)Gal(a1-4)Gal(b1-4)Glc
# Summary of the method: as §1
# [9] = target: GalNAc(a1-3)GalNAc(b1-3)Gal(a1-4)Gal(b1-4)GlcNAc
# Summary of the method: as §1
# GalNAc(b1-3)Gal = target: GalNAc(b1-3)Gal
# Summary of the method: as §1
# [10] = target: GalNAc(b1-3)Gal(a1-4)Gal(b1-4)GlcNAc
# Summary of the method: as §1
# [11] = target: GalNAc(b1-3)Gal(a1-4)Gal(b1-4)GlcNAc(b1-3)Gal(b1-4)Glc
# Summary of the method: as §1
# [12] = target: GalNAc(b1-3)Gal(a1-6)Gal(b1-4)Glc
# Summary of the method: as §1
# GalNAc(b1-3)GalNAc = target: GalNAc(b1-3)GalNAc
# Summary of the method: as §1
# GalNAc(b1-3)GlcNAc = target: GalNAc(b1-3)GlcNAc
# Summary of the method: as §1
# GalNAc(b1-4)Gal(b1-4)Glc = target: GalNAc(b1-4)Gal(b1-4)Glc
# Summary of the method: as §1
# GalNAc(b1-4)GlcNAc = target: GalNAc(b1-4)GlcNAc
# Summary of the method: as §1
binder,measurement,setting,value
Mnn9-2N3 (Aspergillus fumigatus) (protein) MAVARRMRRTNPITLLLAAILAIGFFIFVLSPSTTSASPVKAGSASSSSTSQQRREDNAAENPLSPPTKPFFKSQPVRHDGQQAPPPVVQYNLNQLSSTSTSAANGERILILTPMARFVPEYWDNVVKLTYPHELISIGFIIPKNKEGNAALAALEAAIAKTQSGPIDKRFASISILRQDFEPPLQSQDEKERHKISNQKARRESMSRARNSLLFTTLGPATAWVLWLDADIVETPPTLIQDLTAHDHPVLVPNCYQRYYNSEKKKMDVRPYDYNSWIDSSTAQSMAAEMGPDEILLEGYAEMPTYRTLMAHLADTANPNPKKVIELDGVGGTALMVKAEVHRDGAMFPAFPFYHLVETEGFAKMAKRLGYSVYGLPDYFVSRNFFFFFFFFFFG,glycan array binding signal (z-score),[1],-2.2
same,glycan array binding signal (z-score),[2],-0.094
same,glycan array binding signal (z-score),[3],-0.485
same,glycan array binding signal (z-score),Gal(b1-4)GlcNAc6P,0.29
same,glycan array binding signal (z-score),Gal(b1-6)Gal,-0.788
same,glycan array binding signal (z-score),Gal3S(b1-3)GalNAc,-0.11
same,glycan array binding signal (z-score),Gal3S(b1-3)GlcNAc,-0.224
same,glycan array binding signal (z-score),[4],0.659
same,glycan array binding signal (z-score),Gal3S(b1-4)Glc,3.44
same,glycan array binding signal (z-score),Gal3S(b1-4)Glc6S,1.42
same,glycan array binding signal (z-score),Gal3S(b1-4)GlcNAc,0.236
same,glycan array binding signal (z-score),[5],-1.27
same,glycan array binding signal (z-score),[6],-1.53
same,glycan array binding signal (z-score),[7],-1.09
same,glycan array binding signal (z-score),Gal3S4S(b1-4)GlcNAc,-0.968
same,glycan array binding signal (z-score),Gal3S6S(b1-4)GlcNAc,-2.67
same,glycan array binding signal (z-score),Gal3S6S(b1-4)GlcNAc6S,-3.05
same,glycan array binding signal (z-score),Gal4S(b1-4)GlcNAc,-0.089
same,glycan array binding signal (z-score),Gal4S6S(b1-4)GlcNAc,-0.381
same,glycan array binding signal (z-score),Gal6P(b1-4)GlcNAc,2.57
same,glycan array binding signal (z-score),Gal6S(b1-3)GlcNAc,-0.363
same,glycan array binding signal (z-score),Gal6S(b1-3)GlcNAc6S,2.52
same,glycan array binding signal (z-score),Gal6S(b1-4)Glc,-0.39
same,glycan array binding signal (z-score),Gal6S(b1-4)Glc6S,-0.727
same,glycan array binding signal (z-score),Gal6S(b1-4)GlcNAc,-0.571
same,glycan array binding signal (z-score),Gal6S(b1-4)GlcNAc6S,-0.866
same,glycan array binding signal (z-score),GalNAc(a1-3)Gal,-0.223
same,glycan array binding signal (z-score),GalNAc(a1-3)GalNAc,-0.042
same,glycan array binding signal (z-score),[8],-0.332
same,glycan array binding signal (z-score),[9],-0.709
same,glycan array binding signal (z-score),GalNAc(b1-3)Gal,-1.8
same,glycan array binding signal (z-score),[10],0.061
same,glycan array binding signal (z-score),[11],-2.29
same,glycan array binding signal (z-score),[12],1.29
same,glycan array binding signal (z-score),GalNAc(b1-3)GalNAc,-1.41
same,glycan array binding signal (z-score),GalNAc(b1-3)GlcNAc,0.09
same,glycan array binding signal (z-score),GalNAc(b1-4)Gal(b1-4)Glc,-0.651
same,glycan array binding signal (z-score),GalNAc(b1-4)GlcNAc,-0.366

# 2 records drawn at random from those above, as already listed:
binder,measurement,setting,value
Mnn9-2N3 (Aspergillus fumigatus) (protein) MAVARRMRRTNPITLLLAAILAIGFFIFVLSPSTTSASPVKAGSASSSSTSQQRREDNAAENPLSPPTKPFFKSQPVRHDGQQAPPPVVQYNLNQLSSTSTSAANGERILILTPMARFVPEYWDNVVKLTYPHELISIGFIIPKNKEGNAALAALEAAIAKTQSGPIDKRFASISILRQDFEPPLQSQDEKERHKISNQKARRESMSRARNSLLFTTLGPATAWVLWLDADIVETPPTLIQDLTAHDHPVLVPNCYQRYYNSEKKKMDVRPYDYNSWIDSSTAQSMAAEMGPDEILLEGYAEMPTYRTLMAHLADTANPNPKKVIELDGVGGTALMVKAEVHRDGAMFPAFPFYHLVETEGFAKMAKRLGYSVYGLPDYFVSRNFFFFFFFFFFG,glycan array binding signal (z-score),GalNAc(b1-3)GlcNAc,0.09
same,glycan array binding signal (z-score),Gal4S6S(b1-4)GlcNAc,-0.381
